Taken from: PubChem BioAssay AID1053208 (Peter MacCallum Cancer Centre, 2014)
Here is an unselected part of about 17,000 reagents. Of all reagents, 788 (4.7%) were called active. 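Calls rest on z-score classes alone; an extra cut-off of viability at most 70% of control was not applied to them.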 Reagents against one gene are numbered here.

- Assay: 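Find knock-downs that sensitise mouse osteosarcoma cells to doxorubicin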 (primary screen)
- Cell system: mouse osteosarcoma cells, early-passage culture from an engineered mouse model of fibroblastic bone tumour
- Reagents: siRNA pool against mouse genes, 40 nM
- Timing: about 120 h (48 h before drug, then 72 h with drug)
- Conditions: doxorubicin 100 nM for 72 h, roughly 30-40% inhibitory dose
- Measured: 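Luminescent ATP signal taken as viability with or without 100 nM doxorubicin for 72 h; mean of two wells set against non-targeting siRNA and turned into robust z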
- Direction: viability z-score with doxorubicin and doxorubicin viability vs non-targeting: higher = more viable cells under doxorubicin; viability z-score without drug: higher = more viable cells with knock-down alone; z-score of drug to no-drug ratio: higher = less drug sensitisation by knock-down
- Rule for the call: 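a pool counts as active when its viability z-score with doxorubicin is -2 or below and its z-score without drug lies between -2 and 2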

combined z-score class | viability z-score with doxorubicin | viability z-score without drug | z-score of drug to no-drug ratio | doxorubicin viability vs non-targeting | Call | target | reagent no.
no change with or without drug | 1.24 | 0.84 | 0.79 | 1.05 | inactive | Rubcn | 1
no change with or without drug | 0.34 | -0.84 | 1.12 | 0.97 | inactive | Kcnmb4 | 1
no change with or without drug | -1.01 | -0.17 | -0.9 | 0.85 | inactive | Strap | 1
no change with or without drug | 0 | -1.18 | 1.01 | 0.94 | inactive | Psg21 | 1
no change with or without drug | 0 | 0.51 | -0.22 | 0.94 | inactive | Tnfrsf22 | 1
no change with or without drug | -0.56 | -1.52 | 0.56 | 0.89 | inactive | Tnfrsf22 | 2
no change with or without drug | 0 | 0 | 0.11 | 0.94 | inactive | Plch2 | 1
no change with or without drug | -0.9 | 0.84 | -1.35 | 0.86 | inactive | Peak1 | 1
no change with or without drug | 0.34 | 0.51 | 0.11 | 0.97 | inactive | Cd200 | 1
no change with or without drug | 0.56 | -0.17 | 0.79 | 0.99 | inactive | P2rx7 | 1
no change with or without drug | 0.22 | -0.17 | 0.45 | 0.96 | inactive | 4930579C12Rik | 1
high cell count without drug only | -0.45 | 3.71 | -2.36 | 0.9 | inactive | Bnip5 | 1
no change with or without drug | -0.67 | 0.51 | -0.9 | 0.88 | inactive | En2 | 1
no change with or without drug | 0.11 | -0.67 | 0.67 | 0.95 | inactive | Tcim | 1
no change with or without drug | 0.22 | -0.67 | 0.79 | 0.96 | inactive | Akr7a5 | 1
no change with or without drug | -1.91 | 0.34 | -2.14 | 0.77 | inactive | Eddm3b | 1
no change with or without drug | -0.45 | -0.84 | 0.22 | 0.9 | inactive | Clca2 | 1
no change with or without drug | 0 | 0.34 | -0.11 | 0.94 | inactive | Fmnl1 | 1
low cell count with doxorubicin only | -2.7 | 1.35 | -3.37 | 0.7 | active | Coa7 | 1
no change with or without drug | -0.67 | -0.67 | -0.11 | 0.88 | inactive | Prp2 | 1
no change with or without drug | 0 | -0.51 | 0.45 | 0.94 | inactive | Or52n2 | 1
no change with or without drug | 0 | 0.67 | -0.34 | 0.94 | inactive | Fndc4 | 1
no change with or without drug | -0.9 | -0.84 | -0.22 | 0.86 | inactive | Vmn1r199 | 1
no change with or without drug | -0.67 | 0.17 | -0.67 | 0.88 | inactive | Gm14296 | 1
no change with or without drug | 0.22 | 0.34 | 0.11 | 0.96 | inactive | Gm14296 | 2
no change with or without drug | 0.67 | 0 | 0.79 | 1 | inactive | Gzmd | 1
no change with or without drug | 0.56 | -1.18 | 1.57 | 0.99 | inactive | Fkbp1a | 1
low cell count with and without drug | -3.93 | -2.53 | -2.7 | 0.59 | inactive | Tbc1d10b | 1
low cell count with doxorubicin only | -2.02 | -0.17 | -1.91 | 0.76 | active | Trpc2 | 1
low cell count with doxorubicin only | -2.02 | -0.17 | -1.91 | 0.76 | active | Adora2a | 1
high cell count without drug only | 0.56 | 2.53 | -0.9 | 0.99 | inactive | Echdc3 | 1
no change with or without drug | 0.11 | -1.01 | 1.01 | 0.95 | inactive | Oxsr1 | 1
no change with or without drug | 0.79 | 1.01 | 0.22 | 1.01 | inactive | Cyp46a1 | 1
high cell count with and without drug | 4.05 | 2.87 | 2.02 | 1.3 | inactive | Serpina3b | 1
no change with or without drug | -0.67 | 1.18 | -1.35 | 0.88 | inactive | Pklr | 1
no change with or without drug | 0.67 | -1.69 | 2.25 | 1 | inactive | Htr6 | 1
no change with or without drug | 1.35 | 0 | 1.57 | 1.06 | inactive | Reep3 | 1
no change with or without drug | -0.67 | -1.18 | 0.22 | 0.88 | inactive | HSPG2 | 1
no change with or without drug | -0.67 | 0.17 | -0.67 | 0.88 | inactive | Zmat2 | 1
no change with or without drug | 0.22 | 0.67 | -0.11 | 0.96 | inactive | Relch | 1
no change with or without drug | -1.46 | 1.01 | -2.02 | 0.81 | inactive | Chchd3 | 1
no change with or without drug | -0.56 | 0.51 | -0.79 | 0.89 | inactive | Hecw1 | 1
no change with or without drug | -0.45 | 0.51 | -0.67 | 0.9 | inactive | Ttll1 | 1
no change with or without drug | -1.12 | -0.34 | -0.9 | 0.84 | inactive | Metap2 | 1
no change with or without drug | -1.69 | -1.18 | -0.9 | 0.79 | inactive | Banf1 | 1
no change with or without drug | 0 | -0.51 | 0.45 | 0.94 | inactive | Or5ac17 | 1
no change with or without drug | 0.67 | 0.84 | 0.22 | 1 | inactive | Trim26 | 1
no change with or without drug | -0.9 | -0.51 | -0.56 | 0.86 | inactive | Cyld | 1
low cell count with doxorubicin only | -2.7 | 0.17 | -2.81 | 0.7 | active | Prorsd1 | 1
no change with or without drug | -0.67 | 0 | -0.56 | 0.88 | inactive | Mesp2 | 1

4 entries already listed, arranged by “viability z-score without drug”, highest first:
combined z-score class | viability z-score with doxorubicin | viability z-score without drug | z-score of drug to no-drug ratio | doxorubicin viability vs non-targeting | Call | target | reagent no.
no change with or without drug | 0 | 0.51 | -0.22 | 0.94 | inactive | Tnfrsf22 | 1
no change with or without drug | -1.01 | -0.17 | -0.9 | 0.85 | inactive | Strap | 1
no change with or without drug | 0.34 | -0.84 | 1.12 | 0.97 | inactive | Kcnmb4 | 1
no change with or without drug | 0 | -1.18 | 1.01 | 0.94 | inactive | Psg21 | 1
